From PubChem BioAssay AID330 (DTP/NCI, 2004)
The list is a part of this screen's results and no random one: it gathers tests that were run many times, whatever their T/C, doses with no T/C, and many T/C values between a quarter and a half above the control. Other doses and runs of a compound stand elsewhere. T/C gives the treated animals as a percentage of the vehicle group. Some entries give survivors of the animals treated and no T/C: the source files T/C as zero there, which appears to mark a toxic dose or a test without result, not a measured value. Some doses without a T/C left all or most animals alive at the check, yet need not have been tolerated: the source hardly ever lists a survival T/C far under the control, and the zero likely stands for such cases as well. Survivors were counted at the toxicity check, usually on the fifth day, unless a day is given; later deaths do not show. Schedules are NCI's codes, read here as Q, the interval in days (D) or hours (H), X, the number of doses. Some entries were tested several times; the results are listed from low to high. Signs of the kind (2×) stand for listed records that agree. Where survival is the endpoint, the PubChem record calls one and a half times the control and up active, and a quarter to a half above the control has no call in these data; cut-offs in other NCI protocols can differ.

System: P388 leukemia ip, CD2F1 mice, survival T/C
Assay: NCI In Vivo Anticancer Drug Screen. Data for tumor model P388 Leukemia (intraperitoneal) in CD2F1 (CDF1) mice
Settings: T/C endpoint: median survival time, higher T/C = longer survival
[1] = dose: 25.0 mg/kg/injection, schedule: Q01DX009 (ip), vehicle: saline with Tween-80
[2] = dose: 50.0 mg/kg/injection, schedule: Q01DX009 (ip), vehicle: saline with Tween-80
[3] = dose: 100.0 mg/kg/injection, schedule: Q01DX009 (ip), vehicle: saline with Tween-80
[4] = dose: 200.0 mg/kg/injection, schedule: Q01DX009 (ip), vehicle: saline with Tween-80
[5] = dose: 200.0 mg/kg/injection, schedule: Q01DX005 (ip), vehicle: Klucel (hydroxypropylcellulose) (HPC)

SMILES: CC1OC(OC2CC(O)(C(=O)CO)Cc3c(O)c4c(c(O)c32)C(=O)c2ccccc2C4=O)CC(N)C1O (configuration not stated)
- T/C (dose: 0.03 mg/kg/injection, schedule: Q01DX009 (ip), vehicle: water): 137 % of control
- T/C (dose: 0.13 mg/kg/injection, schedule: Q04DX003 (ip), vehicle: water): 128 % of control
- T/C (dose: 0.5 mg/kg/injection, schedule: Q04DX003 (ip), vehicle: water): 128 % of control
- T/C (dose: 1.0 mg/kg/injection, schedule: Q04DX003 (ip), vehicle: water): 143 % of control
- survivor count (dose: 1.56 mg/kg/injection, schedule: Q01DX009 (ip), vehicle: water): 5 of 6 and 6 of 6
- T/C (dose: 1.8 mg/kg/injection, schedule: Q01DX001 (ip), vehicle: water): 135 % of control
- survivor count (dose: 3.13 mg/kg/injection, schedule: Q01DX009 (ip), vehicle: water): 3 of 6 and 4 of 6
- T/C (dose: 4.0 mg/kg/injection, schedule: Q04DX003 (ip), vehicle: water): 146 % of control
- survivor count (dose: 4.2 mg/kg/injection, schedule: Q01DX001 (ip), vehicle: water): 6 of 6
- survivor count (dose: 5.6 mg/kg/injection, schedule: Q01DX001 (ip), vehicle: water): 4 of 6
- survivor count (dose: 6.25 mg/kg/injection, schedule: Q01DX009 (ip), vehicle: water): 1 of 6
- survivor count (dose: 7.5 mg/kg/injection, schedule: Q01DX001 (ip), vehicle: water): 3 of 6
- survivor count (dose: 10.0 mg/kg/injection, schedule: Q01DX001 (ip), vehicle: water): 2 of 6
- survivor count (dose: 12.5 mg/kg/injection, schedule: Q01DX009 (ip), vehicle: water): 2 of 6
- survivor count (dose: 25.0 mg/kg/injection, schedule: Q01DX009 (ip), vehicle: water): 0 of 6

SMILES: O=C(OCc1ccccc1)N1C[C@@H](Br)[C@H](Br)[C@H]1Cc1ccccc1
- survivor count (dose: 400.0 mg/kg/injection, schedule: Q01DX001 (ip), vehicle: distilled water + alcohol): 2 of 6

SMILES: Cn1nc(-c2ccc(Cl)c(Cl)c2)[n+]([O-])c2c(=O)n(C)c(=O)nc1-2
- T/C [1]: 130 and 134 % of control
- survivor count [2]: 4 of 6 and 6 of 6
- survivor count [3]: 1 of 6
- survivor count [4]: 0 of 6

SMILES: S=C1N(c2ccc(Cl)cc2)C2=C(N=Nc3ccccc3Cl)C(=Nc3ccccc3S2)N1c1ccccn1
- T/C (dose: 50.0 mg/kg/injection, schedule: Q01DX005 (ip), vehicle: saline with Tween-80): 126 % of control
- survivor count (dose: 200.0 mg/kg/injection, schedule: Q01DX005 (ip), vehicle: saline with Tween-80): 3 of 6

SMILES: CCN1C(=O)C(=NO)C(=O)N(CC)C1=S.CCN1C(=O)C(=N[O-])C(=O)N(CC)C1=S.CCN1C(=O)C(=N[O-])C(=O)N(CC)C1=S.[Fe+3]
- survivor count (dose: 400.0 mg/kg/injection, schedule: Q04DX002 (ip), vehicle: saline with Tween-80): 3 of 6

SMILES: CC1=CC=c2ccc3c(c2[N-]1)[N-]C(C)=CC=3.CC1=CC=c2ccc3c(c2[N-]1)[N-]C(C)=CC=3.O=[N+]([O-])O.[Cu+]
- survivor count (dose: 25.0 mg/kg/injection, schedule: Q04DX002 (ip), vehicle: suspension in saline): 0 of 6
- survivor count (dose: 100.0 mg/kg/injection, schedule: Q04DX002 (ip), vehicle: suspension in saline): 0 of 6
- survivor count (dose: 200.0 mg/kg/injection, schedule: Q04DX002 (ip), vehicle: suspension in saline): 0 of 6
- survivor count (dose: 400.0 mg/kg/injection, schedule: Q04DX002 (ip), vehicle: suspension in saline): 0 of 6

SMILES: O=C(Nc1ccc(C2=NCCN2)cc1)Nc1cccc(NC(=O)Nc2cccc(C3=NCCN3)c2)c1
- T/C (dose: 3.0 mg/kg/injection, schedule: Q04DX003 (ip), vehicle: saline with Tween-80): 127 % of control
- T/C (dose: 3.13 mg/kg/injection, schedule: Q04DX003 (ip), vehicle: saline with Tween-80): 131 % of control
- T/C (dose: 6.25 mg/kg/injection, schedule: Q04DX003 (ip), vehicle: saline with Tween-80): 131 % of control
- survivor count (dose: 200.0 mg/kg/injection, schedule: Q04DX003 (ip), vehicle: saline): 0 of 6
- survivor count (dose: 400.0 mg/kg/injection, schedule: Q04DX003 (ip), vehicle: saline): 0 of 6

SMILES: ClCCn1c(CCl)nc2ccc(Cl)cc21
- survivor count (dose: 50.0 mg/kg/injection, schedule: Q01DX009 (ip), vehicle: Klucel (hydroxypropylcellulose) (HPC)): 5 of 6

SMILES: CC1(C)O[C@H]2CC(=O)OC[C@]23[C@H]2CC[C@@]4(C)C(c5ccoc5)OC(=O)[C@H]5O[C@]54[C@]2(C)[C@@H](OC(=O)CCl)C[C@@H]13 (some centres not stated)
- survivor count (dose: 2.0 mg/kg/injection, schedule: Q01DX009 (ip), vehicle: saline + alcohol): 4 of 6
- survivor count (dose: 4.0 mg/kg/injection, schedule: Q01DX009 (ip), vehicle: saline + alcohol): 0 of 6
- survivor count (dose: 8.0 mg/kg/injection, schedule: Q01DX009 (ip), vehicle: saline + alcohol): 0 of 6

SMILES: O=C1CCCC1C(=O)c1ccccc1.O=C1CCCC1C(=O)c1ccccc1.[Cu] (configuration not stated)
- survivor count (dose: 200.0 mg/kg/injection, schedule: Q01DX009 (ip), vehicle: Klucel (hydroxypropylcellulose) (HPC)): 0 of 6

SMILES: C[n+]1c2ccccc2c(Nc2ccc(NS(=O)(=O)CCCCN=C(N)N)cc2)c2ccc(N)cc21
- T/C (dose: 6.0 mg/kg/injection, schedule: Q01DX005 (ip), vehicle: Klucel (hydroxypropylcellulose) (HPC)): 144 % of control

SMILES: [O-]/[N+](=C\c1ccccc1)c1ccccc1
- survivor count (dose: 400.0 mg/kg/injection, schedule: Q04DX003 (ip), vehicle: saline with Tween-80): 4 of 6

SMILES: N=c1nc(-c2ccccc2)c(-c2ccccc2)nn1CC(=O)c1ccc(Br)cc1
- survivor count [5]: 5 of 6

SMILES: C=C1C[C@@H](O)[C@H](O)[C@@]2(C)C[C@@H]3OC(=O)C(=C)[C@@H]3C[C@H]12
- T/C (dose: 25.0 mg/kg/injection, schedule: Q01DX009 (ip), vehicle: saline): 125 % of control

SMILES: N#CSC1=C(SC#N)C1(F)F
- survivor count (dose: 100.0 mg/kg/injection, schedule: Q04DX002 (ip), vehicle: Klucel (hydroxypropylcellulose) (HPC)): 0 of 6
- survivor count (dose: 200.0 mg/kg/injection, schedule: Q04DX002 (ip), vehicle: Klucel (hydroxypropylcellulose) (HPC)): 1 of 6
- survivor count (dose: 400.0 mg/kg/injection, schedule: Q04DX002 (ip), vehicle: Klucel (hydroxypropylcellulose) (HPC)): 0 of 6

SMILES: O=c1[nH]c2c(=O)[nH][nH]c(=O)c2[nH]c1=O
- survivor count (dose: 120.0 mg/kg/injection, schedule: Q01DX005 (ip), vehicle: saline with Tween-80): 1 of 6
- survivor count (dose: 240.0 mg/kg/injection, schedule: Q01DX005 (ip), vehicle: saline with Tween-80): 0 of 6

SMILES: COc1ccc(C(=O)[Se][Se]C(=O)c2ccc(OC)cc2)cc1
- survivor count [1]: 6 of 6
- survivor count [2]: 0 of 6
- survivor count [3]: 0 of 6
- survivor count [4]: 0 of 6

SMILES: CCOC(=O)Oc1ccc[nH]c1=O
- survivor count (dose: 50.0 mg/kg/injection, schedule: Q01DX009 (ip), vehicle: saline): 6 of 6

SMILES: COc1cc(NS(C)(=O)=O)ccc1Nc1c2ccc([N+](=O)[O-])cc2nc2c(C)cccc12
- survivor count (dose: 12.0 mg/kg/injection, schedule: Q01DX009 (ip), vehicle: saline with Tween-80): 6 of 6
- survivor count (dose: 18.0 mg/kg/injection, schedule: Q04DX003 (ip), vehicle: saline with Tween-80): 6 of 6
- survivor count (dose: 25.0 mg/kg/injection, schedule: Q04DX003 (ip), vehicle: saline sonified): 6 of 6
- survivor count (dose: 50.0 mg/kg/injection, schedule: Q04DX003 (ip), vehicle: saline sonified): 5 of 6
- survivor count (dose: 100.0 mg/kg/injection, schedule: Q04DX003 (ip), vehicle: saline sonified): 4 of 6

SMILES: OCC(O)CCBr (configuration not stated)
- T/C [3]: 136 % of control
- survivor count [4]: 2 of 6
- survivor count (dose: 400.0 mg/kg/injection, schedule: Q01DX009 (ip), vehicle: saline with Tween-80): 0 of 6 (2×)
- survivor count (dose: 600.0 mg/kg/injection, schedule: Q01DX009 (ip), vehicle: saline with Tween-80): 0 of 6

SMILES: C[CH2][Sn]1([Cl])[O]CCNCC[O]1
- T/C (dose: 100.0 mg/kg/injection, schedule: Q01DX005 (ip), vehicle: Klucel (hydroxypropylcellulose) (HPC)): 125 % of control
- T/C [5]: 129 % of control
